Experimental data reported in publication PMC7083565, “In vitro metabolism, reaction phenotyping, enzyme kinetics, CYP inhibition and induction potential of ataluren” (Pharmacology Research & Perspectives, 2020).

How the values were obtained:
[1] = test system: UGT1A1; assay: Correlation analysis with marker UGT1A1 activity; assay type: in vitro ADME, human; settings: vs 3-Glucuronidation of 17β-estradiol (UGT1A1), 16 individual HLM
[2] = test system: UGT1A9; assay: Correlation analysis with marker UGT1A9 activity; assay type: in vitro ADME, human; settings: vs Glucuronidation of propofol (UGT1A9), 16 individual HLM

O=C(O)c1cccc(-c2noc(-c3ccccc3F)n2)c1 [ataluren, Ataluren]
Correlation coefficient, Ataluren glucuronide formation [1]: 0.430 | Correlation coefficient, Loss of ataluren [1]: 0.383 | Correlation coefficient, Ataluren glucuronide formation [2]: 0.677 | Correlation coefficient, Loss of ataluren [2]: 0.756
